Test results as given in paper PMC8294767.
These are yes or no findings as the source states them, for the method shown. Some binding calls cover weakened binding; strength is not graded here.

Protein sequences, listed by entry. Tags and fused reporters are not part of them. Residues count along the entry.
UniProt P17931: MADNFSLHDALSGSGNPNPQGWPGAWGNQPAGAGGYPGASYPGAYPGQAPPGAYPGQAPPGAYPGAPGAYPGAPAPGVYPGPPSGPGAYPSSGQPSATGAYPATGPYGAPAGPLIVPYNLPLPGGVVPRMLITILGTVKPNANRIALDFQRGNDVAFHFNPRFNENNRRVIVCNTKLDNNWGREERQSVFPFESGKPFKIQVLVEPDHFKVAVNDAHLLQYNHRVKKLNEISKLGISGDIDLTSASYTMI
UniProt Q9HCN6, residues 21-339: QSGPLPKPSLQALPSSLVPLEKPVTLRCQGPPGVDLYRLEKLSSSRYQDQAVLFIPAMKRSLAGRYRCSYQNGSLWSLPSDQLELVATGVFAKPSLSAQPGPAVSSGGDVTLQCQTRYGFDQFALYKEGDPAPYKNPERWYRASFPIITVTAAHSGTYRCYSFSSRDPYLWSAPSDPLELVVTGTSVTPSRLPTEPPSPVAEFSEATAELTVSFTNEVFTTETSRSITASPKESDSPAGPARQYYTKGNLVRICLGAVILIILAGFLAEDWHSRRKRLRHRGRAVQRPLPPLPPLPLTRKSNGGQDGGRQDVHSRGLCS

Key:
[1] = molecular target: galectin-3 (human (endogenous in A2780)) (UniProt P17931); assay: SPR; inhibition: Revacept (40 ug/ml) added with purified GPVI and injected over galectin-3 immobilised on a streptavidin-coated chip; HBS-EP-EDTA running buffer, pH 7.4; both purified
[2] = molecular target: galectin-3 (human (endogenous in A2780)) (UniProt P17931); assay: SPR; Nicoya instrument; biotinylated galectin-3 immobilised on a streptavidin-coated chip (~50 RU); purified GPVI (100 ul) injected at 20 ul/min; HBS-EP-EDTA running buffer (0.01 M Hepes, 0.15 M NaCl, 3 mM EDTA, pH 7.4); Langmuir fit; both purified

- binding [1]: binds
- binding [2]: binds
Substance: platelet glycoprotein VI (GPVI) (from UniProt Q9HCN6 21-339) (receptor)
